Measured values taken from PMC5112549.
No constants are given. Whether binding was seen depends on the method and setting. Binding seen in cells or lysates may run through a third protein. Some results given as binding are weak or reduced against the parent protein; the word gives no strength.

Chains of the proteins cited; added tags and fusions are not shown. Residues count along the entry.
UniProt Q9ULV1, residues 37-537: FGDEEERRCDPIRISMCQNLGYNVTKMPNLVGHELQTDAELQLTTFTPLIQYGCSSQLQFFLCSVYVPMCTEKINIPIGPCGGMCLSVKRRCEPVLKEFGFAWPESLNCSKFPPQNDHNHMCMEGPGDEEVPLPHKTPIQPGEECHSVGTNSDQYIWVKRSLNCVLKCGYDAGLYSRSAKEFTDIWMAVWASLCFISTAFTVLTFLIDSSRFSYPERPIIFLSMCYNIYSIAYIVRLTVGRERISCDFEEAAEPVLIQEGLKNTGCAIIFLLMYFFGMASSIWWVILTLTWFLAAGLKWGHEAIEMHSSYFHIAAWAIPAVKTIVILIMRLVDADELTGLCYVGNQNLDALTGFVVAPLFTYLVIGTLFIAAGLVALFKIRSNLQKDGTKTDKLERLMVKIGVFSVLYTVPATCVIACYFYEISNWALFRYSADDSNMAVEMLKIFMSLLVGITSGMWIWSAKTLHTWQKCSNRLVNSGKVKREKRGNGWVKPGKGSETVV
UniProt Q13467, residues 27-585: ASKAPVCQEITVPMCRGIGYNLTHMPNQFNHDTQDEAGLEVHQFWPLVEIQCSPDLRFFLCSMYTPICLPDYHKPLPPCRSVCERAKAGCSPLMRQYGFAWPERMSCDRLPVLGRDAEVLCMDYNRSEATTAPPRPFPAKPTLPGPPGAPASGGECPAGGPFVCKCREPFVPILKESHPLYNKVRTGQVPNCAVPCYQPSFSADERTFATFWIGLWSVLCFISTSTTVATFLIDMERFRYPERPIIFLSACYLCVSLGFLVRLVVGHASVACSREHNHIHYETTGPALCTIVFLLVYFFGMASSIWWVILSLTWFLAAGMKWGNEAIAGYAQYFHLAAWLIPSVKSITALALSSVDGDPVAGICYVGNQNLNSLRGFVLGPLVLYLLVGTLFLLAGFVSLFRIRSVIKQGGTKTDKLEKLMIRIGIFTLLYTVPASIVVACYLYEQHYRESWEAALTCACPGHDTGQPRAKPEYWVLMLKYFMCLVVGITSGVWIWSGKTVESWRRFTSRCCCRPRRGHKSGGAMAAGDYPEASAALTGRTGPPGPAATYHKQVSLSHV
UniProt O00744, residues 29-389: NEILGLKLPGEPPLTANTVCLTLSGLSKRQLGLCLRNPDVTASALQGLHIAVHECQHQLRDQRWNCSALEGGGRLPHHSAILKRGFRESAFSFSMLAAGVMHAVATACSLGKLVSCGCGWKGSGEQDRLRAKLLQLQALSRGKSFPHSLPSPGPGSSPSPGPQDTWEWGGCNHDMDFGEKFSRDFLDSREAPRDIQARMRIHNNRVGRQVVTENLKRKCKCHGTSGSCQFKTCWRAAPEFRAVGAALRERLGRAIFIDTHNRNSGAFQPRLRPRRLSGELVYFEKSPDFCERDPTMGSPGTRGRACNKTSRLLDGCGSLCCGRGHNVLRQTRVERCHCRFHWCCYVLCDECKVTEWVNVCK

Key:
[1] = target: FZD4 (human (endogenous in MCF-7)) (UniProt Q9ULV1); experiment: co-IP; MCF-7 cell lysate, 100 ug protein; immunoprecipitation with anti-FZD4, anti-FZD5 or anti-FZD6 antibodies on Protein G Sepharose, 4 °C; immunoblot
[2] = target: FZD5 (human (endogenous in MCF-7)) (UniProt Q13467); experiment: as above
[3] = target: FZD4 (human (endogenous in MCF-7)) (UniProt Q9ULV1); experiment: proximity ligation; in situ PLA on fixed, permeabilised MCF-7 cells (adherent and tumorsphere cultures); mouse anti-WNT10B and rabbit anti-FZD4/5/6 primary antibodies; also after treatment of the cells with IWP-2 (0, 3, 5, 7 uM), which lowered the signals dose-dependently
[4] = target: FZD5 (human (endogenous in MCF-7)) (UniProt Q13467); experiment: as above

Measured: binding

WNT10B (from UniProt O00744 29-389) (ligand)
binds: all assays above
